The source of these data is PubChem BioAssay AID248 (DTP/NCI, 2004).

The subject of the experiment is L1210 leukemia ip in BDF1 mice, survival T/C. The experiment can be described thus: NCI In Vivo Anticancer Drug Screen. Data for tumor model L1210 Leukemia (intraperitoneal) in B6D2F1 (BDF1) mice. Particulars: higher T/C = longer survival.
The mark [1] stands for this setting: T/C endpoint: mean survival time, dose: 300.0 mg/kg/injection, schedule: Q01DX001 (ip), vehicle: carboxymethylcellulose (CMC).
[2] abbreviates: T/C endpoint: mean survival time, dose: 200.0 mg/kg/injection, schedule: Q01DX009 (ip), vehicle: saline.
Setting [3] is: T/C endpoint: mean survival time, dose: 300.0 mg/kg/injection, schedule: Q01DX001 (ip), vehicle: saline.
[4] abbreviates: T/C endpoint: mean survival time, dose: 400.0 mg/kg/injection, schedule: Q01DX001 (ip), vehicle: saline.

Each structure is given as a SMILES string. The list shows only some results of the screen, not a fair sample: it gathers tests that were run many times, whatever their T/C, doses with no T/C, and many T/C values between a quarter and a half above the control. Further doses and runs are listed elsewhere. T/C: endpoint of the treated group in % of that of the vehicle group. Some doses have a count of surviving animals in place of a T/C: the source files T/C as zero there, which appears to mark a toxic dose or a test without result, not a measured value. Some doses without a T/C left all or most animals alive at the check, yet need not have been tolerated: the source hardly ever lists a survival T/C far under the control, and the zero likely stands for such cases as well. Survivors were counted at the toxicity check, usually on the fifth day, unless a day is given; later deaths do not show. Schedules are NCI's codes, read here as Q, the interval in days (D) or hours (H), X, the number of doses. Some schedules carry Z or #; the key to these is not given. Some structures stand for samples that the source files as different forms (salt, stereo form or complex); doses refer to the form tested. Where survival is the endpoint, this PubChem deposit counts one and a half times the control or more as active, and values a quarter to a half above the control carry no call in these data; other NCI protocols may use other cut-offs. Some T/C values carry the count of animals alive at the toxicity check (mostly the fifth day); where none is given, no animal had died by that day.

With `O=C(Nc1ccc2ncccc2c1)Nc1ccc2ncccc2c1`, under “T/C endpoint: mean survival time, dose: 100.0 mg/kg/injection, schedule: Q04DX003 (ip), vehicle: Klucel (hydroxypropylcellulose) (HPC)”, the survivor count is 6 of 6.
Turning to `CCOC(=O)CCN(Cc1ccccc1)C(=S)Nc1ccccc1`, the survivor count is on record as 2 of 6 (T/C endpoint: mean survival time, dose: 100.0 mg/kg/injection, schedule: Q01DX Z (ip), vehicle: methylcellulose (MC)) and 4 of 6 (T/C endpoint: mean survival time, dose: 200.0 mg/kg/injection, schedule: Q01DX Z (ip), vehicle: methylcellulose (MC)).
For `CC(=O)Nc1c(Cl)cc(-c2ccc(F)cc2)cc1Cl`, the survivor count runs as follows: (T/C endpoint: mean survival time, dose: 75.0 mg/kg/injection, schedule: Q01DX001 (ip), vehicle: carboxymethylcellulose (CMC)) 2 of 6; (T/C endpoint: mean survival time, dose: 150.0 mg/kg/injection, schedule: Q01DX001 (ip), vehicle: carboxymethylcellulose (CMC)) 0 of 6; under setting [1], 0 of 6.
On to `CN1CCC(OC2c3ccccc3CCc3ccccc32)CC1`, for which the survivor count by setting is: under setting [2], 0 of 6; (T/C endpoint: mean survival time, dose: 200.0 mg/kg/injection, schedule: Q04DX003 (ip), vehicle: saline) 0 of 4; (T/C endpoint: mean survival time, dose: 400.0 mg/kg/injection, schedule: Q01DX009 (ip), vehicle: saline) 0 of 6; (T/C endpoint: mean survival time, dose: 400.0 mg/kg/injection, schedule: Q04DX003 (ip), vehicle: saline) 0 of 4.
Take `O=CCC(O)C(O)C(O)CO` (stereo unspecified): the T/C (T/C endpoint: median survival time, dose: 125.0 mg/kg/injection, schedule: Q01DX009 (ip), vehicle: saline) is 131 % of control.
Turning to `C[N+](C)(CCl)C1CCCCC1`, the survivor count runs as follows: (T/C endpoint: mean survival time, dose: 150.0 mg/kg/injection, schedule: Q01DX001 (ip), vehicle: saline) 0 of 6; under setting [3], 0 of 6.
With `O=C1C=C(Br)C(=O)C1(Br)Br`, the survivor count by setting is: (T/C endpoint: mean survival time, dose: 150.0 mg/kg/injection, schedule: Q01DX001 (sc), vehicle: olive oil, sesame oil, peanut oil) 1 of 6; (T/C endpoint: mean survival time, dose: 300.0 mg/kg/injection, schedule: Q01DX001 (sc), vehicle: olive oil, sesame oil, peanut oil) 1 of 6.
As for `C(=N/Nc1ccccn1)/c1cccnc1`, the survivor count (T/C endpoint: mean survival time, dose: 200.0 mg/kg/injection, schedule: Q01DX001 (ip), vehicle: saline with Tween-80) was 3 of 6 and the survivor count (T/C endpoint: mean survival time, dose: 400.0 mg/kg/injection, schedule: Q01DX001 (ip), vehicle: saline with Tween-80) is 3 of 6.
For the compound `C1[CH2][Hg][CH2]CO1`, the survivor count (T/C endpoint: mean survival time, dose: 400.0 mg/kg/injection, schedule: Q04DX002 (ip), vehicle: saline) is on record as 2 of 3.
As for `C/C=C/CC1(CCC(C)C)C(=O)NC(=O)NC1=O`, the survivor count (T/C endpoint: mean survival time, dose: 300.0 mg/kg/injection, schedule: Q01DX001 (ip), vehicle: acetone) is on record as 3 of 6.
`CN(C)c1ccc([N+](=O)[O-])cc1[N+](=O)[O-]`: the T/C (T/C endpoint: mean survival time, dose: 400.0 mg/kg/injection, schedule: Q01DX001 (ip), vehicle: other) is 125 % of control [5 of 6 alive].
With `CCNC(=O)N(CC)N=O`, the T/C under setting [4] is 144 % of control. Besides, the survivor count (T/C endpoint: mean survival time, dose: 600.0 mg/kg/injection, schedule: Q01DX001 (ip), vehicle: saline) is reported as 6 of 6; the survivor count (T/C endpoint: mean survival time, dose: 800.0 mg/kg/injection, schedule: Q01DX001 (ip), vehicle: saline) was 2 of 6; the survivor count (T/C endpoint: mean survival time, dose: 1000.0 mg/kg/injection, schedule: Q01DX001 (ip), vehicle: saline) is reported as 0 of 6.
Turning to `O=CC1=C(Cl)c2ccccc2CC1`, the survivor count is 3 of 6 (T/C endpoint: mean survival time, dose: 25.0 mg/kg/injection, schedule: Q04DX003 (ip), vehicle: acetone); 0 of 6 (T/C endpoint: mean survival time, dose: 50.0 mg/kg/injection, schedule: Q04DX003 (ip), vehicle: acetone); 0 of 6 (T/C endpoint: mean survival time, dose: 100.0 mg/kg/injection, schedule: Q04DX003 (ip), vehicle: acetone); 0 of 6 (T/C endpoint: mean survival time, dose: 200.0 mg/kg/injection, schedule: Q04DX003 (ip), vehicle: acetone); 0 of 6 (T/C endpoint: mean survival time, dose: 400.0 mg/kg/injection, schedule: Q04DX003 (ip), vehicle: acetone).
In the case of `Cc1ccc(S(=O)(=O)SC(Cl)(Cl)Cl)cc1`, the survivor count by setting is: (T/C endpoint: mean survival time, dose: 100.0 mg/kg/injection, schedule: Q01DX009 (ip), vehicle: saline) 0 of 3; under setting [2], 0 of 3.
In the case of `Fc1ccc(Cl)c2cccnc12`, the survivor count under setting [3] was 0 of 6.
For the compound `CCC(O)C(CCN(C)C)(CN(C)C)c1ccccc1` (stereo unspecified), under setting [1], the survivor count is listed as 0 of 6.
With `CN(C)Cc1cc(C(C)(C)C)ccc1-c1ccc(C(C)(C)C)cc1CN(C)C`, the survivor count runs as follows: (T/C endpoint: mean survival time, dose: 100.0 mg/kg/injection, schedule: Q01DX009 (ip), vehicle: gum acacia) 0 of 6; (T/C endpoint: mean survival time, dose: 200.0 mg/kg/injection, schedule: Q01DX009 (ip), vehicle: gum acacia) 0 of 6; (T/C endpoint: mean survival time, dose: 400.0 mg/kg/injection, schedule: Q01DX009 (ip), vehicle: gum acacia) 0 of 6.
Consider `COc1cc2c(cc1OC)C13CCN4CC5=CCOC6CC(=O)N2C1C6C5CC43` (stereo unspecified), for which the survivor count runs as follows: (T/C endpoint: mean survival time, dose: 75.0 mg/kg/injection, schedule: Q01DX001 (ip), vehicle: other) 3 of 6; (T/C endpoint: mean survival time, dose: 150.0 mg/kg/injection, schedule: Q01DX001 (ip), vehicle: other) 0 of 6; (T/C endpoint: mean survival time, dose: 200.0 mg/kg/injection, schedule: Q01DX015 (ip), vehicle: saline) 0 of 6; (T/C endpoint: mean survival time, dose: 300.0 mg/kg/injection, schedule: Q01DX001 (ip), vehicle: other) 0 of 6.
For the compound `CCOc1cc(/C=N\Nc2nncn2N)ccc1N(CCCl)CCCl`, the T/C (T/C endpoint: mean survival time, dose: 4.0 mg/kg/injection, schedule: Q01DX015 (ip), vehicle: carboxymethylcellulose (CMC)) was 134 % of control [5 of 6 alive]; the T/C (T/C endpoint: mean survival time, dose: 9.0 mg/kg/injection, schedule: Q01DX001 (ip), vehicle: carboxymethylcellulose (CMC)) was 129 % of control; the T/C (T/C endpoint: mean survival time, dose: 10.0 mg/kg/injection, schedule: Q01DX001 (ip), vehicle: carboxymethylcellulose (CMC)) was 130 % of control; the T/C (T/C endpoint: mean survival time, dose: 13.0 mg/kg/injection, schedule: Q01DX001 (ip), vehicle: carboxymethylcellulose (CMC)) was 138 % of control; the T/C (T/C endpoint: mean survival time, dose: 20.0 mg/kg/injection, schedule: Q01DX001 (ip), vehicle: carboxymethylcellulose (CMC)) was 145 % of control. For the same compound, the survivor count runs as follows: (T/C endpoint: mean survival time, dose: 20.0 mg/kg/injection, schedule: Q01DX015 (ip), vehicle: carboxymethylcellulose (CMC)) 2 of 6; (T/C endpoint: mean survival time, dose: 30.0 mg/kg/injection, schedule: Q01DX001 (ip), vehicle: carboxymethylcellulose (CMC)) 1 of 4; (T/C endpoint: mean survival time, dose: 40.0 mg/kg/injection, schedule: Q01DX001 (ip), vehicle: carboxymethylcellulose (CMC)) 2 of 4; (T/C endpoint: mean survival time, dose: 50.0 mg/kg/injection, schedule: Q01DX001 (ip), vehicle: carboxymethylcellulose (CMC)) 0 of 4; (T/C endpoint: mean survival time, dose: 80.0 mg/kg/injection, schedule: Q01DX001 (ip), vehicle: carboxymethylcellulose (CMC)) 0 of 4; (T/C endpoint: mean survival time, dose: 100.0 mg/kg/injection, schedule: Q01DX001 (ip), vehicle: carboxymethylcellulose (CMC)) 0 of 4. For the same compound, the survivor count runs as follows: (T/C endpoint: mean survival time, dose: 200.0 mg/kg/injection, schedule: Q01DX001 (ip), vehicle: carboxymethylcellulose (CMC)) 0 of 4; (T/C endpoint: mean survival time, dose: 400.0 mg/kg/injection, schedule: Q01DX001 (ip), vehicle: carboxymethylcellulose (CMC)) 0 of 4.
In the case of `CC(C)(C)CC(C)(C)N=C=S`, the survivor count (T/C endpoint: mean survival time, dose: 200.0 mg/kg/injection, schedule: Q01DX009 (ip), vehicle: saline with Tween-80) is listed as 0 of 6 and the survivor count (T/C endpoint: mean survival time, dose: 400.0 mg/kg/injection, schedule: Q01DX009 (ip), vehicle: saline with Tween-80) is given as 0 of 6.
With `CC(C)CCCC(C)C1CCC2C3CC=C4CC(O)CCC4(C)C3CCC12C` (stereo unspecified) (tested in a mixture with another compound), the survivor count is recorded as 0 of 6 (T/C endpoint: mean survival time, dose: 200.0 mg/kg/injection, schedule: Q01DX001 (ip), vehicle: water) and 0 of 6 (T/C endpoint: mean survival time, dose: 400.0 mg/kg/injection, schedule: Q01DX001 (ip), vehicle: water).
For `CCc1ccc2ccc3c4ccccc4ccc3[n+]2c1`, the survivor count by setting is: (T/C endpoint: mean survival time, dose: 80.0 mg/kg/injection, schedule: Q01DX001 (ip), vehicle: saline) 6 of 6; (T/C endpoint: mean survival time, dose: 100.0 mg/kg/injection, schedule: Q01DX001 (ip), vehicle: saline) 0 of 4; (T/C endpoint: mean survival time, dose: 200.0 mg/kg/injection, schedule: Q01DX001 (ip), vehicle: saline) 0 of 4; under setting [4], 0 of 4.
